Source: PubChem BioAssay (NCATS)
This list was built around the results that the source calls inconclusive (neither active nor inactive); the mix of calls is not that of the screen. Where the call is inconclusive, the potency comes from a doubtful curve fit. Calls of active or inactive are those of the source. The call rests on the fitted dose curve; in most records, active means well fitted curve in the direction sought with a large enough effect; inconclusive means small, poorly fitted or top-dose-only effect, or another doubt; inactive means no such curve, though single readings can be large; an effect the other way counts as inactive or inconclusive.

Assays:
[1] = Quantitative High-Throughput drug screen in 47 multiple myeloma cell lines against the NCATS MIPE library collection: KHM11_PLB cell viability assay (AID 1918962); settings: KHM11 myeloma cell viability, CellTiter-Glo ATP luminescence, 48 h; series mostly up to 45.8 µM; further: nearly all actives have a fitted effect of over 35% in size
Procedure, shortened: (§1)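 Luminescent ATP measurement with CellTiter-Glo gives viability, scaled between DMSO-only wells (100%) and media-only wells (0%). Cells, 500 per well, faced library compounds for 48 hours at 37C.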

[2] = Quantitative High-Throughput drug screen in 47 multiple myeloma cell lines against the NCATS MIPE library collection: JIM3_ECACC cell viability assay (AID 1918963; further: nearly all actives have a fitted effect of over 35% in size)
Procedure, shortened: as §1

[3] = Quantitative High-Throughput drug screen in 47 multiple myeloma cell lines against the NCATS MIPE library collection: JIM1_ECACC cell viability assay (AID 1918964); settings: JIM1 myeloma viability, CellTiter-Glo ATP luminescence, 48 h; viability (% of DMSO): at 45.8 µM (top of the series)
Procedure, shortened: (§2)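 Inhibition of cell viability is measured here. Each line was plated at 500 cells per well, treated with MIPE 4.0 drugs, kept 48 hours at 37C, then assayed for ATP content by CellTiter-Glo luminescence.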

[4] = Quantitative High-Throughput drug screen in 47 multiple myeloma cell lines against the NCATS MIPE library collection: INA6_PLB cell viability assay (AID 1918965; further: nearly all actives have a fitted effect of over 55% in size); settings: INA6 myeloma viability, CellTiter-Glo ATP luminescence, 48 h; series mostly up to 45.8 µM
Procedure, shortened: (§3)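 Steps: seed 500 cells per well; pin-transfer MIPE 4.0 library; incubate 48 h at 37C, 5% CO2, humidified; add CellTiter-Glo, 5 min room temperature; read luminescence.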

[5] = Quantitative High-Throughput drug screen in 47 multiple myeloma cell lines against the NCATS MIPE library collection: JJN3_DSMZ cell viability assay (AID 1918966; further: nearly all actives have a fitted effect of over 50% in size)
Procedure, shortened: as §2

[6] = Quantitative High-Throughput drug screen in 47 multiple myeloma cell lines against the NCATS MIPE library collection: H1112_PLB cell viability assay (AID 1918967; further: nearly all actives have a fitted effect of over 30% in size)
Procedure, shortened: as §2

[7] = Quantitative High-Throughput drug screen in 47 multiple myeloma cell lines against the NCATS MIPE library collection: KMS27_JCRB cell viability assay (AID 1918970); settings: KMS27 myeloma cells, CellTiter-Glo ATP viability, 48 h; viability (% of DMSO): at 45.8 µM (top of the series); further: nearly all actives have a fitted effect of over 30% in size
Procedure, shortened: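 Luminescent ATP read-out (CellTiter-Glo, 5 min at room temperature) after 48 h compound exposure of 500 KMS27_JCRB cells per well; DMSO wells define full viability and media-only wells zero.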

[8] = Quantitative High-Throughput drug screen in 47 multiple myeloma cell lines against the NCATS MIPE library collection: KMS12BM_JCRB cell viability assay (AID 1918971); settings: KMS12BM myeloma viability, CellTiter-Glo ATP, 48 h; viability, % of DMSO: at 45.8 µM (top of the series); further: nearly all actives have a fitted effect of over 35% in size
Procedure, shortened: as §1

[9] = Quantitative High-Throughput drug screen in 47 multiple myeloma cell lines against the NCATS MIPE library collection: KMS12PE_JCRB cell viability assay (AID 1918972); settings: KMS12PE myeloma viability, CellTiter-Glo ATP, 48 h; viability: at 45.8 µM (top of the series); further: nearly all actives have a fitted effect of over 30% in size
Procedure, shortened: as §3

[10] = Quantitative High-Throughput drug screen in 47 multiple myeloma cell lines against the NCATS MIPE library collection: Karpas25_ECACC cell viability assay (AID 1918968; further: nearly all actives have a fitted effect of over 35% in size)
Procedure, shortened: as §2

Measured: Potency
Potency means the concentration at half of the fitted maximal effect.

CC(=O)OCCN1C(=O)c2c(C)nc3ccc(S(=O)(=O)N4CCOCC4)cc3c2C1=O
inactive: [2] | [3] | [4] | [8]
inconclusive: [1] 0.372 µM [rising, full curve] | [5] 0.0053 µM [rising, full curve, poor fit] | [6] 0.0093 µM [rising, full curve, poor fit] | [7] 8.33 µM [cytotoxic, full curve, poor fit]

Cc1ccccc1C(=O)c1ccc(Nc2ccc(Br)cc2N)cc1Cl
active: [4] 18.7 µM | [7] 6.62 µM
inconclusive: [1] 37.2 µM [cytotoxic, single point] | [2] 20.9 µM [cytotoxic, partial curve] | [3] 16.6 µM [cytotoxic, partial curve, poor fit] | [5] 3.72 µM [cytotoxic, full curve, poor fit] | [6] 26.4 µM [cytotoxic, single point]

NS(=O)(=O)c1cc2c(cc1Cl)NC(C(Cl)Cl)NS2(=O)=O (stereo not drawn)
inconclusive: [1] 0.001 µM | [4] 18.7 µM [cytotoxic, partial curve, poor fit] | [5] 0.0017 µM [rising, full curve, poor fit] | [8] 0.0059 µM [rising, full curve, poor fit]
not listed: [10]
inactive: all other assays above

CN(C(=O)c1ccc(F)cc1C(F)(F)F)C1CCN(c2nnc(-c3ccnn3C)c3ccccc23)CC1
inconclusive: [1] 2.09 µM [cytotoxic, full curve] | [2] 16.6 µM [cytotoxic, partial curve] | [3] 16.6 µM [cytotoxic, partial curve, poor fit] | [4] 14.8 µM [cytotoxic, partial curve, poor fit] | [5] 0.0083 µM [rising, full curve, poor fit] | [6] 11.8 µM [cytotoxic, partial curve] | [10] 14.8 µM [cytotoxic, partial curve]
inactive: [8]

COc1cc2c(N3CCN(C(=O)Nc4ccc(OC(C)C)cc4)CC3)ncnc2cc1OCCCN1CCCCC1
inconclusive: [2] 14.8 µM [cytotoxic, partial curve] | [3] 0.0332 µM [rising, full curve, poor fit] | [5] 20.9 µM [cytotoxic, partial curve, poor fit] | [6] 9.35 µM [cytotoxic, full curve] | [8] 33.2 µM [cytotoxic, partial curve, poor fit] | [9] 0.0023 µM [rising, full curve, poor fit]
active: [1] 8.33 µM | [4] 3.72 µM | [10] 9.35 µM

COc1cc(Nc2ncc3c(n2)-c2ccc(Cl)cc2C(c2c(F)cccc2OC)=NC3)ccc1C(=O)O
inconclusive: [1] 2.35 µM [cytotoxic, full curve, poor fit] | [2] 0.0418 µM [cytotoxic, full curve, poor fit] | [3] 33.2 µM [cytotoxic, single point] | [4] 9.35 µM [cytotoxic, partial curve, poor fit] | [10] 5.26 µM [cytotoxic, full curve, poor fit] | [7] 37.2 µM [cytotoxic, partial curve, poor fit] | [9] 37.2 µM [cytotoxic, single point]
inactive: [5] | [6]

CCc1cc(C(C)=NOCc2ccc(C3CCCCC3)c(C(F)(F)F)c2)ccc1CN1CC(C(=O)O)C1
inconclusive: [1] 2.64 µM [rising, full curve] | [2] 18.7 µM [cytotoxic, partial curve, poor fit] | [3] 5.26 µM [cytotoxic, full curve, poor fit] | [5] 37.2 µM [cytotoxic, single point] | [10] 20.9 µM [cytotoxic, partial curve] | [7] 0.526 µM [cytotoxic, full curve] | [9] 5.26 µM [cytotoxic, full curve]
active: [6] 14.8 µM
inactive: [4]

CCc1cccc2c3c([nH]c12)C(CC)(CC(=O)O)OCC3 (stereo not drawn)
inconclusive: [3] 0.264 µM [rising, full curve, poor fit] | [5] 18.7 µM [cytotoxic, partial curve, poor fit] | [10] 0.001 µM | [8] 11.8 µM [cytotoxic, partial curve, poor fit]
inactive: all other assays above

CC(C)(C)c1cc(NC(=O)Nc2ccc(-c3cn4c(n3)sc3cc(OCCN5CCOCC5)ccc34)cc2)no1
inconclusive: [1] 0.469 µM [rising, full curve, poor fit] | [2] 0.264 µM [cytotoxic, full curve] | [3] 0.0059 µM [cytotoxic, full curve, poor fit] | [5] 18.7 µM [cytotoxic, partial curve, poor fit] | [6] 33.2 µM [cytotoxic, single point] | [7] 0.132 µM [cytotoxic, full curve, poor fit] | [9] 0.132 µM [cytotoxic, full curve]
active: [4] 3.32 µM | [10] 13.2 µM

O=C1CN2Cc3c(ccc(Cl)c3Cl)N=C2N1
inactive: [3]
inconclusive: [1] 18.7 µM [cytotoxic, partial curve, poor fit] | [2] 29.6 µM [cytotoxic, single point] | [4] 37.2 µM [cytotoxic, single point] | [5] 16.6 µM [cytotoxic, partial curve, poor fit]

CC(C)C[C@H](NC(=O)[C@@H](NC(=O)c1cccc(-c2ccccc2)n1)[C@@H](C)O)B(O)O
active: [1] 0.0187 µM

O=C(C=Cc1c(C(=O)O)[nH]c2cc(Cl)cc(Cl)c12)Nc1ccccc1
inconclusive: [1] 0.0026 µM [rising, full curve, poor fit] | [10] 0.0019 µM [rising, full curve, poor fit]
not listed: [9]
inactive: all other assays above

O=C(C[C@@H]1CC=CCCC(=O)O[C@H](c2ccccc2)CNC1=O)NCc1ccc(Cl)cc1
active: [1] 2.64 µM
inactive: [5] | [10] | [8]
inconclusive: [2] 6.62 µM [cytotoxic, partial curve, poor fit] | [3] 0.0023 µM [rising, full curve, poor fit] | [4] 5.26 µM [cytotoxic, full curve, poor fit] | [7] 10.5 µM [cytotoxic, partial curve, poor fit] | [9] 2.35 µM [cytotoxic, partial curve, poor fit]

Nc1nc(=O)n([C@H]2CSC(CO)O2)cc1F (stereo partly drawn)
inconclusive: [1] 7.43 µM [rising, partial curve] | [3] 0.0332 µM [cytotoxic, full curve, poor fit] | [4] 1.05 µM [rising, full curve, poor fit] | [6] 0.001 µM | [9] 0.0019 µM [cytotoxic, full curve, poor fit]
inactive: all other assays above

CO[C@@H]1C(N(C)C(=O)c2ccccc2)C[C@H]2O[C@]1(C)n1c3ccccc3c3c4c(c5c6ccccc6n2c5c31)C(=O)NC4=O (stereo partly drawn)
inconclusive: [1] 1.66 µM [cytotoxic, full curve] | [3] 0.935 µM [cytotoxic, full curve, poor fit] | [5] 4.69 µM [cytotoxic, full curve, poor fit] | [6] 14.8 µM [cytotoxic, partial curve] | [10] 6.62 µM [cytotoxic, full curve] | [7] 1.48 µM [cytotoxic, full curve]
active: [2] 6.62 µM | [4] 1.48 µM

NCc1c[nH]c(=S)n1[C@H]1CCc2c(F)cc(F)cc2C1
active: [7] 11.8 µM | [9] 14.8 µM
inconclusive: [1] 37.2 µM [cytotoxic, single point] | [2] 33.2 µM [cytotoxic, single point] | [3] 33.2 µM [cytotoxic, single point] | [4] 16.6 µM [cytotoxic, partial curve, poor fit] | [5] 33.2 µM [cytotoxic, single point] | [6] 23.5 µM [cytotoxic, single point]
